Out of some 53,000 sequences screened, about 3,700 (7%) were called active.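 Rule for the calls: active = gene knockdowns whose robust z-score for IL-1 alpha signal is at least 2 or at most -2, so actives lie on both sides; inactive = the rest.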 The list shows a part of the results.
Assay: Components of the Cytosolic LPS Sensing Pathway: Gene Identification via Genome-wide siRNA Screen;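 note: robust z of the log signal after scaling to non-targeting control siRNA wells of the plate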
Settings: RAW264.7 macrophages, IL-1a HTRF, actives lie on both sides, screened at 100 nM (by protocol), cells primed 5 h with Pam3CSK4 first
How it was run: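 Cells (RAW264.7, 1×10^4 per well) were transfected with siRNA at 100 nM and cultured 48h at 37 degrees C. Pam3CSK4 was added for 5 hours; LipidA transfection followed for 24 hour. IL-1a was then measured by HTRF.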

Sequence	z-score
GGUUGGAAAGCAUUUUUUATT against Commd2	inactive: 1.13
GGUUGGUAGGCUUUGGUGUTT against Notum	inactive: 0.657
GGUCCUUGCCAAAACAAUUTT against Crb1	inactive: -1.13
GGAUUCUCUACCUUACCAUTT against Mfsd8	inactive: 0.361
GGCUGUGUAAGAUUUGUUUTT against Hmgb1	inactive: -0.0689
GGUCAAGAGGAGGGUACCUTT against Foxred2	inactive: 0.313
GGCUUCAGCUAUUGGGCAATT against Vsig1	active: 2.19
CCUUGAAAAGUCUAAACGUTT against Tmod2	inactive: 0.375
GGAUCAGACUGUACGAGAGTT against Crygd	inactive: -1.11
GGAACUCUUCUAUUACAGATT against Sfxn4	inactive: 0.62
GCAAUUUAUGCCCUGCCUUTT against Fastk	inactive: -0.165
GGGUUUUAAUUAUACUGCGTT against Ror2	inactive: 0.868
GCUAACAUACAUCAUCAAATT against Stx5a	inactive: 0.696
GGACAAGCACCAGGAUUUUTT against Cyct	inactive: 0.676
GGAAAGCAUUGUUUUUUUGTT against Rtkn2	inactive: -0.649
GCUGGAGAACCUCCCUAAATT against Mrps33	inactive: 1.14
GGACCACCUAUGGACUACATT against Rbm6	inactive: 1.09
GGUUAAAAGAGGUGAUUAGTT against Mtfp1	inactive: 1.9
GGAGAAGAAGGGAAAGCAUTT against Tub	inactive: -1.4
GCCAGGUAUUGGAUGCCAUTT against Stkld1	inactive: -1.55
GCCCAUUCUGUAGGUGCAUTT against Nrg4	inactive: 0.677
GCCGAGUUUACUUGUUUGATT against Exd1	inactive: 0.554

Sequence	z-score
GGACCAAGGAUGUUCGCUUTT against Cnr2	inactive: 1.14
GGUGAUAUUCCUAUCUAAATT against Mbnl1	inactive: 1.84
GGCAAAGAAAGGCAAGCCUTT against Cyp3a11	inactive: 1.86
CUAGAAGUGAUGGCUUUCATT against Olfr814	inactive: -0.316
GGAGUAUCGUAAUGCGGACTT against C4b	inactive: 0.598
GGAAGGAAGAAGACAAUAATT against Nudt16l1	inactive: -0.438
GGAUCUUGUAGAGCAAAAUTT against Rnmt	inactive: 0.564
GCAGGCAUCGUGUUUACCATT against Cdh20	inactive: 1.86
GGUUGAGUGUCUUUUCUGCTT against Krt34	inactive: -1.02
GUACAAGCUCAAGUGCUCGTT against Casz1	inactive: -0.463
CGGUGAUGCGAUAUAAUGUTT against Serpine2	inactive: -0.0324
GGACAUACCAGAAGAAAUUTT against Sult1d1	inactive: -0.463
AAUGUUGAAAACAAGAGCCTT against Vmn1r148	inactive: -1.51
CGAUCCUCUUUGUUUAUCUTT against Olfr998	inactive: -1.92
GGAAUUUCUGUGCAUUAAATT against Astn2	inactive: -1.51
GGUUAUGUACCAGCAAAGUTT against Epdr1	inactive: 0.821
GCAAGUGAAUACCAGAUCCTT against Pcdhac1	inactive: -0.0652
GGUGAACUAGAAAUCAGAUTT against 9330154K18Rik	inactive: 0.699
CCUUCGAAGUGCUAUGGGATT against Apbb1	inactive: 0.858
GCAAGGGAAUGUGUGCCUUTT against Olfr16	inactive: 0.461
GGCCAUGAAUGGAAUGUACTT against Slco1a1	inactive: -1.56
GGCAUGAGAUUCUCAAUCCTT against Ppp4r4	inactive: -1.82

Sequence	z-score
GCCUAAGAGUUUCAAUAAGTT against Tgtp1	inactive: -1.21
GGAGAAAUCAGAAUUUUUGTT against Dbf4	inactive: -0.0526
GGGCGUGUUAUCAAUGUCUTT against Dhrs9	inactive: -0.314
UCUUUGUGGUAGCCAUCCUTT against Olfr129	inactive: 1.09
CCUUUAUGAAUGAACAGGGTT against Cnot7	inactive: -0.266
GGUGUAUGCAGACAAGUUATT against Ctdspl2	inactive: -0.158
CGAAUCCUUAGUUGAAGAATT against Fastkd1	inactive: 1.18
GGAACAAUUGAUAAGACGATT against Guf1	inactive: 0.237
GGUACUGCAACUACAUGAUTT against Rnase12	inactive: -0.607
GGCUCAAGGAACAUGAGGCTT against Gtsf2	inactive: -0.0452
GGACAUUAGAGAAUCAUUATT against Gm4922	inactive: -0.183
CCUUGAGUGAAAAAGGUUUTT against Top2b	inactive: 1.19
GGAAUUUUCUUCAUUUGGATT against Pabpc5	inactive: -0.878
GGUUGUGGUAGUCCGCUAUTT against Mrpl2	inactive: 0.787
GGAUGAUACAUGUUUGAAUTT against Vmn1r51	inactive: -0.121
CCCUAUCCUGUUCAUCUCUTT against Gpr50	active: 2.83
GACUUUUCAGGCAUACCUATT against Ypel2	inactive: -1.19
GGAAGACCGUACUAUGUUUTT against Meg3	inactive: 0.419
GGCCAUUGACUUUGUGGAUTT against Gatd1	inactive: 0.317
CCAAGAUCUAUGGAGGACGTT against Rps19	inactive: -0.284
GCCUUCGUCUCCAAGUAUATT against Plagl1	inactive: -0.305
GGCGAAGCACUCGAAUUUCTT against Slc23a2	inactive: 0.0273

Retrieved one by one from the entries so far:
Sequence	z-score
GGCGAAGCACUCGAAUUUCTT against Slc23a2	inactive: 0.0273
GGAAUUUUCUUCAUUUGGATT against Pabpc5	inactive: -0.878
GGUUGUGGUAGUCCGCUAUTT against Mrpl2	inactive: 0.787
CGAAUCCUUAGUUGAAGAATT against Fastkd1	inactive: 1.18
CCAAGAUCUAUGGAGGACGTT against Rps19	inactive: -0.284

Next records:

Sequence	z-score
GGACUCAUAUUCGUAUGUATT against Zfr	inactive: -1.23
CCGAGUAAUUAACUAUAAGTT against Eqtn	inactive: 0.745
GGGUUCCUAAAUAGAAAAUTT against Nanos1	inactive: 0.047
GGUCACCCAUUUCUUUUGUTT against Olfr361	inactive: 0.59
GGAUGGUGUAGCACAUUUCTT against Tulp2	inactive: 0.422
GGCGAAAAUAAGUUGAAAATT against Bhlhe22	inactive: 0.796
CGGCAGGAUGAAUGAGAUCTT against Bccip	inactive: -1.4
GGAGAUAACGUACAUCAACTT against Sfrp2	inactive: 1.7
CGAUCCAGUAUUCGAAGCATT against Sqstm1	inactive: 0.263
GCACACCAGCGACAUUCUATT against Aipl1	inactive: 1.21
GGGAGAAGAAAAGAAGACATT against Cldn23	inactive: 0.554
GGCUUUUAGCUACCUUGUGTT against AW209491	inactive: -0.704
CGUGCCACUUUUACCGUCCTT against Zdhhc8	active: -2.43
GGAGAUCUAUAAGGAUAGATT against Flot1	inactive: -0.0586
GGUGACGCAGAGGAUCUAUTT against Pmf1	inactive: 0.911
GGAAUUUGACAAACUCAGCTT against Rcn3	inactive: 0.986
GGAGUUACGCCGAAACAGGTT against Wfdc15a	inactive: 0.0102
GGGCCACUGUCGAUAUGAATT against Prr3	inactive: -0.459
GCCUGUUAGCGGUUGUUGUTT against Syt10	inactive: -0.542
GGGAGGGUGUGCAAAAGUUTT against Arl4d	inactive: 1.26
GGAUUUGGAUUUGUAAGCUTT against Pabpc1	inactive: 1.99
CCCACAGAACCACACAUUCTT against H2-DMa	active: 3.11

As a short view, part of the list above:
Sequence	z-score
GGUACUGCAACUACAUGAUTT against Rnase12	inactive: -0.607
GGCUCAAGGAACAUGAGGCTT against Gtsf2	inactive: -0.0452

The list continues.

Sequence	z-score
GCUUGCUAGAGUGAUCUCGTT against Adsl	inactive: -0.331
GGAAUUAUUCCCAAUCCUATT against Cbln1	inactive: 0.204
GGGCAUCAGCAUUUGGUCATT against Med1	inactive: 0.698
CCUGGAUCAGCAAUCCACATT against Lpxn	inactive: -0.503
GGAUAGGGAUUGGAGAUAUTT against Stn1	inactive: 0.203
GGAGCUAUUGACACAAGUCTT against E230025N22Rik	inactive: 0.00962
GCAGAGAGCACAAUAAAGCTT against Chchd6	inactive: 1.36
GGAGGUGUUGAACAAGUGCTT against Tescl	inactive: 1.61
CCCUUAAAGGGUAGCAUUUTT against Ncan	inactive: 0.837
GGAGUUGACGAAGAUAUGATT against Nsmce2	inactive: 0.28
GCUACAUCUACCUUAGGCCTT against Olfr1329	inactive: 0.584
GGUUGAAAAUUUCAAACAGTT against Btg4	inactive: 0.621
GGGCAACACAGGACAUCUATT against Amot	inactive: -0.35
GGCCACCUCUCGAAAGUUUTT against Xirp1	inactive: -0.731
GCACUGUGACGAUACAAGATT against Asb1	inactive: -1.17
GCUGUUCCUAUUUCAUGACTT against Myo3b	inactive: -0.625
GGUCAAUGGCCACAAGUUCTT against Prkce	inactive: 0.421
GCACAAGUUCGUGCCAGGUTT against Prf1	inactive: 0.65
GGUUAUAUGGACCCUAAAATT against Aplnr	inactive: -0.339

From PubChem BioAssay AID1508600 (Functional Genomics Laboratory (NCATS/FGL), 2020)
